From publication PMC9714148
Results are given in words; binding and its absence hold for the method and conditions named. In cells and extracts the contact can be indirect. Some results given as binding are weak or reduced against the parent protein; the word gives no strength.

Sequences of proteins named here, by UniProt entry; tags and fusion partners are left off.
UniProt P13864: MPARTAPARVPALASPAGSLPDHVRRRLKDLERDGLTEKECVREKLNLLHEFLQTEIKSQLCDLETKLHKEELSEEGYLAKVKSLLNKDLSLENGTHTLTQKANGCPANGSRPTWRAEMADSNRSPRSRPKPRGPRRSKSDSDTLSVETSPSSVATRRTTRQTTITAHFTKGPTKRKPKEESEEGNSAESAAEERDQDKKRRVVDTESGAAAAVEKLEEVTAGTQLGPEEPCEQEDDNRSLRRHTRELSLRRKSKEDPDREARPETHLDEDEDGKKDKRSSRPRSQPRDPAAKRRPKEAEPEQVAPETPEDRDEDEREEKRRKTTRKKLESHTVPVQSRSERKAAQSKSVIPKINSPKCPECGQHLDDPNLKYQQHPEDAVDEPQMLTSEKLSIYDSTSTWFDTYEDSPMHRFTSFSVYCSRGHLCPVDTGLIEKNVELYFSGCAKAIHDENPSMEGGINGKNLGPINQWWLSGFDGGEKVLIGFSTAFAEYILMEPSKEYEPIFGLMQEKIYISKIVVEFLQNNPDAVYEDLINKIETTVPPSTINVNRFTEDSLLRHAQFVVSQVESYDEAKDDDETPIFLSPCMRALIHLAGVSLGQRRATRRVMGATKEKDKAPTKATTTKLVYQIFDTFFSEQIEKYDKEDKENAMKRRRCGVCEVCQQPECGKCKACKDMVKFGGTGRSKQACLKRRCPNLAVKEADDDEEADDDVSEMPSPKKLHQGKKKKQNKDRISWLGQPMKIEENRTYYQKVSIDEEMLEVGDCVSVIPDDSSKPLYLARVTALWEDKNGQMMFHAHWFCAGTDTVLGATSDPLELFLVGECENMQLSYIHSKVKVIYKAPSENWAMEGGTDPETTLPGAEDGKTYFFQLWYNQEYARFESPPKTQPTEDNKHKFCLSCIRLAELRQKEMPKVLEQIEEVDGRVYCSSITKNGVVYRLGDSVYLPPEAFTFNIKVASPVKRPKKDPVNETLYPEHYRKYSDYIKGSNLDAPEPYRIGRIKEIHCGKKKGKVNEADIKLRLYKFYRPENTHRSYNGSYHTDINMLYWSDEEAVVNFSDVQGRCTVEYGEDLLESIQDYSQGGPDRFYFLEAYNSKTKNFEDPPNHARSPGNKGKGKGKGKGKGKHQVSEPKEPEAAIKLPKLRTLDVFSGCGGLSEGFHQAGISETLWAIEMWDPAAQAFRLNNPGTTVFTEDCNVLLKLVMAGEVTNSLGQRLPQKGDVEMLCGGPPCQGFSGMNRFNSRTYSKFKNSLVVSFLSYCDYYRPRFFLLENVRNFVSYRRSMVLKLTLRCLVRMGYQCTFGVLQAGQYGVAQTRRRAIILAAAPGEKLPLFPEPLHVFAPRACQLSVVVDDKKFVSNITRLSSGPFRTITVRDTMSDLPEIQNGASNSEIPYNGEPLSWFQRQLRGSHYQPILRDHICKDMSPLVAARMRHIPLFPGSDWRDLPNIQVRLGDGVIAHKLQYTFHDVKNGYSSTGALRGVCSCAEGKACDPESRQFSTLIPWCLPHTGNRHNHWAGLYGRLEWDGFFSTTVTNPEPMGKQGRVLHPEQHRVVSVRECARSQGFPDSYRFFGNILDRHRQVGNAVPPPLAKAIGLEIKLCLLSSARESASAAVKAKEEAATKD
UniProt Q8C3P7: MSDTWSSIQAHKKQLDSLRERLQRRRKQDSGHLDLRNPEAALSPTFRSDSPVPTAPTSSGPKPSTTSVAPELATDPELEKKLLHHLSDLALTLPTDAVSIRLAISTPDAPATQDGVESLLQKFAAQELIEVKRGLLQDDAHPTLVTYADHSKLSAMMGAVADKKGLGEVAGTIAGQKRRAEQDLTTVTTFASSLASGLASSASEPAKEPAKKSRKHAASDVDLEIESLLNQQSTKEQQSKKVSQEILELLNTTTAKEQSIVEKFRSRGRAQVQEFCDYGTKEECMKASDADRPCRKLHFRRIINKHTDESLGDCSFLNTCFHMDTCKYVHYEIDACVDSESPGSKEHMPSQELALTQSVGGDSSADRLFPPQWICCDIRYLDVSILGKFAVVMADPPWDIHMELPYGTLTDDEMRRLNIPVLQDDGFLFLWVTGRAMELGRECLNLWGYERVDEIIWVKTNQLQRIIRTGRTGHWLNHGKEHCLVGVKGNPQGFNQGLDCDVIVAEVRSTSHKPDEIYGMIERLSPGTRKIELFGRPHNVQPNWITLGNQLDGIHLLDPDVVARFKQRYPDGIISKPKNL

Legend:
Assay in all cases: co-IP; endogenous proteins in lysate of C2C12 cells differentiated for 4 d; IP with 5 ug antibody overnight at 4 °C, Protein A/G PLUS-Agarose 2 h at 4 °C, Western blot; DNA methylases as bait and, reversed, RNA methylases as bait; nonspecific IgG as control
[1] = biological target: DNMT1 (mouse (endogenous in C2C12)) (UniProt P13864)
[2] = biological target: DNMT3B (mouse (endogenous in C2C12)) (UniProt O88509)
[3] = biological target: METTL3 (mouse (endogenous in C2C12)) (UniProt Q8C3P7)
[4] = biological target: T1, METTL14 (mouse (endogenous in C2C12)) (UniProt Q3UIK4)
T1 sequence: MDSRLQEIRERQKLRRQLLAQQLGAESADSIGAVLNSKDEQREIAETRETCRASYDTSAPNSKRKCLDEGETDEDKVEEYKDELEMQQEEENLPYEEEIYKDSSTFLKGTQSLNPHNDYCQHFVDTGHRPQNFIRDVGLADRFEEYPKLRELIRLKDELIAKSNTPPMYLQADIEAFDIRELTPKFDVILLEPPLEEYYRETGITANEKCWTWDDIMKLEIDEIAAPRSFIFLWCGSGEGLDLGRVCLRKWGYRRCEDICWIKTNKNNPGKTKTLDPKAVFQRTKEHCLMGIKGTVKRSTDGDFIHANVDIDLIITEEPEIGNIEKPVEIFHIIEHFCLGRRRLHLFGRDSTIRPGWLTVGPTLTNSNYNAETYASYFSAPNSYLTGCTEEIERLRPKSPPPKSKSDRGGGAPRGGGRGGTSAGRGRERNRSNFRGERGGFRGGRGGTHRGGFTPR

Measured: binding

B1: METTL14 (protein, UniProt Q3UIK4 1-456)
chain: MDSRLQEIRERQKLRRQLLAQQLGAESADSIGAVLNSKDEQREIAETRETCRASYDTSAPNSKRKCLDEGETDEDKVEEYKDELEMQQEEENLPYEEEIYKDSSTFLKGTQSLNPHNDYCQHFVDTGHRPQNFIRDVGLADRFEEYPKLRELIRLKDELIAKSNTPPMYLQADIEAFDIRELTPKFDVILLEPPLEEYYRETGITANEKCWTWDDIMKLEIDEIAAPRSFIFLWCGSGEGLDLGRVCLRKWGYRRCEDICWIKTNKNNPGKTKTLDPKAVFQRTKEHCLMGIKGTVKRSTDGDFIHANVDIDLIITEEPEIGNIEKPVEIFHIIEHFCLGRRRLHLFGRDSTIRPGWLTVGPTLTNSNYNAETYASYFSAPNSYLTGCTEEIERLRPKSPPPKSKSDRGGGAPRGGGRGGTSAGRGRERNRSNFRGERGGFRGGRGGTHRGGFTPR
binds: [1] | [2] | [3]

B2: WTAP (protein, UniProt Q9ER69 1-396)
chain: MTNEEPLPKKVRLSETDFKVMARDELILRWKQYEAYVQALEGKYTDLNSNDVTGLRESEEKLKQQQQESARRENILVMRLATKEQEMQECTTQIQYLKQVQQPSVAQLRSTMVDPAINLFFLKMKGELEQTKDKLEQAQNELSAWKFTPDSQTGKKLMAKCRMLIQENQELGRQLSQGRIAQLEAELALQKKYSEELKSSQDELNDFIIQLDEEVEGMQSTILVLQQQLKETRQQLAQYQQQQSQASAPSTSRTTSSEPVDQAEVTSKDCSRLANGPSNGSSSRQRTSGSGFHREGSTPEDDFPSSSGNGNKASNSSEERTGRGGSSYINPLSAGYESVDSPTGSENSLTHHSNDTDSSHDPQEEKAVSGKGNRTVGSRHVQNGLDSSVNVQGAVL
binds: all assays above
